Measurements taken from the supplement of paper PMC10849652.
This is one part of the list.

The chains behind the UniProt entries cited, without tags or fusion partners. Where a name states a change or a piece, a line headed by the entry shows the natural chain unless it says otherwise.
UniProt O43824: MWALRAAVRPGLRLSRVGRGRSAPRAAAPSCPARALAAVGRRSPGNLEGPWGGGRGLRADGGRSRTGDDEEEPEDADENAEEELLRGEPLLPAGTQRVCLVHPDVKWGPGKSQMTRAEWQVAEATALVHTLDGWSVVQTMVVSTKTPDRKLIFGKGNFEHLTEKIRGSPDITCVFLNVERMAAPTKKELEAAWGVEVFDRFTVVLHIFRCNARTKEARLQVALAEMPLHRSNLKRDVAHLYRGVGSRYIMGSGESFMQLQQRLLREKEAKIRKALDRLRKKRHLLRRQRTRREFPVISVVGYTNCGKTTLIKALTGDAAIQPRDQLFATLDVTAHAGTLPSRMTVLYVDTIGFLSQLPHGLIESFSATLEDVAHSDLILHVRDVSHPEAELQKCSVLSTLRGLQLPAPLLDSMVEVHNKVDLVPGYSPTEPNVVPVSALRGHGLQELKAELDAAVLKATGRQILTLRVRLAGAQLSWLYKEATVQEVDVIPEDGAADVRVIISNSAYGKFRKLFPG
UniProt P00390: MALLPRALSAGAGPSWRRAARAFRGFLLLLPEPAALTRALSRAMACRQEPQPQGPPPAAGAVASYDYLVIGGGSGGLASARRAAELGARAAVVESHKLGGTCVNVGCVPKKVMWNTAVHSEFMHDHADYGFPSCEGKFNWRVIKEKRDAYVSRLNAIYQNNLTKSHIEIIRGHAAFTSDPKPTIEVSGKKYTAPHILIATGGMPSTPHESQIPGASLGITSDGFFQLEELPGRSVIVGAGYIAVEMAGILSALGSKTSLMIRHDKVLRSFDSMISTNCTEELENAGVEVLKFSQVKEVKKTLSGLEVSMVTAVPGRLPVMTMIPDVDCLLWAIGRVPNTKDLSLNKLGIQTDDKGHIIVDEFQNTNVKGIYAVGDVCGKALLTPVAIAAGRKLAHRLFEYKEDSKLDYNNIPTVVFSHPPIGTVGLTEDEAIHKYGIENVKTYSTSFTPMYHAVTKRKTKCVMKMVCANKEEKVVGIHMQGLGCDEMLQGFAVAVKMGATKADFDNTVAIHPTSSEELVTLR
UniProt Q6Y1H2: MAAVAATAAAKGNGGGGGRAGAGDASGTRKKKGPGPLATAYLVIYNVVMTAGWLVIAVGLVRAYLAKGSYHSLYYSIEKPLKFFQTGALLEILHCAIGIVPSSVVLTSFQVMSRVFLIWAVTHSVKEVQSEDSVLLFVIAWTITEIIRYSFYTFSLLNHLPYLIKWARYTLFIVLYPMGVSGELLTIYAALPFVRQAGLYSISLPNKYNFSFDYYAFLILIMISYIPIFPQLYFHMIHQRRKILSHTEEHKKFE
UniProt P16401, whole entry, looked up: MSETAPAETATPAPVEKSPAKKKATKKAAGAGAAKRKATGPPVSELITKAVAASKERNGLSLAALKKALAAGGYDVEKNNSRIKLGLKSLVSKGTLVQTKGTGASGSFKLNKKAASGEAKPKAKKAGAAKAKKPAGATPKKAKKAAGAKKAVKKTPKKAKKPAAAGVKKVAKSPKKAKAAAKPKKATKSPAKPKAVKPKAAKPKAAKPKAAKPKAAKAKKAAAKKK
UniProt Q9UBP9: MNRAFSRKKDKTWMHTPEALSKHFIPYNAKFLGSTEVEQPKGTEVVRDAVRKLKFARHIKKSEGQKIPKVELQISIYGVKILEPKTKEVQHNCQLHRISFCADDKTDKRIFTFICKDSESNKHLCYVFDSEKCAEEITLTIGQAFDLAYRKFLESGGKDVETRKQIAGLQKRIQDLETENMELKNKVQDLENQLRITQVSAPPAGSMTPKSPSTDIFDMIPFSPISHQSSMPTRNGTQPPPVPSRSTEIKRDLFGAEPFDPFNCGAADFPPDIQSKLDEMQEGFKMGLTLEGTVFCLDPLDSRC
UniProt Q96CP6, whole entry, looked up: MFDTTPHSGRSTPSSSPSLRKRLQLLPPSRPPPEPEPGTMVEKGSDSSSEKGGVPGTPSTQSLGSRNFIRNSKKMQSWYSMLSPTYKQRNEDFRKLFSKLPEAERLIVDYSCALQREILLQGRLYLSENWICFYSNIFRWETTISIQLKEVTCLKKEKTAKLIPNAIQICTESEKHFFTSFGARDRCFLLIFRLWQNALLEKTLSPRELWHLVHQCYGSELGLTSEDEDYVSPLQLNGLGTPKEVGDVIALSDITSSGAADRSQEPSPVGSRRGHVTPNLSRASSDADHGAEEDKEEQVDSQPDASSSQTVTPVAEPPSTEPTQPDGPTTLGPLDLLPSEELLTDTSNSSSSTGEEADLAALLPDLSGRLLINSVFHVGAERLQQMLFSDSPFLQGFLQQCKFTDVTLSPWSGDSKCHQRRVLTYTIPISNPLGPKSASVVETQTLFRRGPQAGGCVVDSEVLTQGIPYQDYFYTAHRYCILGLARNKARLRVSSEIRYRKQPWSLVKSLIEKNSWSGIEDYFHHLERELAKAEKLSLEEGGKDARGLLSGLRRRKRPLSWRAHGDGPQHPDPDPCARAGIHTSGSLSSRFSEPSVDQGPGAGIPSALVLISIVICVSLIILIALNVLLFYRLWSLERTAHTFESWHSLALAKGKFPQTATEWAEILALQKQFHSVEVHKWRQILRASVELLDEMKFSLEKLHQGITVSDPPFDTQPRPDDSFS
UniProt P02724: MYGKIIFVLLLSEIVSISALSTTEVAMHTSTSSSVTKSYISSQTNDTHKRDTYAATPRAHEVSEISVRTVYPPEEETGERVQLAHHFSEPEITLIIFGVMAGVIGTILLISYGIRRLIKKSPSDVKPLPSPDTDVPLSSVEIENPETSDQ
UniProt Q96NT3: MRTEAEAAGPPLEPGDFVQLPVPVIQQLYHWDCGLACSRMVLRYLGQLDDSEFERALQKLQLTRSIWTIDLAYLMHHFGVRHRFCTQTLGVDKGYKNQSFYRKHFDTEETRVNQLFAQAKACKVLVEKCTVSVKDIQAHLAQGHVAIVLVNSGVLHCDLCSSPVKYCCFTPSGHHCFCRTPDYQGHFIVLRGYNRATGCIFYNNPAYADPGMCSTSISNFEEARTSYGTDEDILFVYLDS
UniProt O94927: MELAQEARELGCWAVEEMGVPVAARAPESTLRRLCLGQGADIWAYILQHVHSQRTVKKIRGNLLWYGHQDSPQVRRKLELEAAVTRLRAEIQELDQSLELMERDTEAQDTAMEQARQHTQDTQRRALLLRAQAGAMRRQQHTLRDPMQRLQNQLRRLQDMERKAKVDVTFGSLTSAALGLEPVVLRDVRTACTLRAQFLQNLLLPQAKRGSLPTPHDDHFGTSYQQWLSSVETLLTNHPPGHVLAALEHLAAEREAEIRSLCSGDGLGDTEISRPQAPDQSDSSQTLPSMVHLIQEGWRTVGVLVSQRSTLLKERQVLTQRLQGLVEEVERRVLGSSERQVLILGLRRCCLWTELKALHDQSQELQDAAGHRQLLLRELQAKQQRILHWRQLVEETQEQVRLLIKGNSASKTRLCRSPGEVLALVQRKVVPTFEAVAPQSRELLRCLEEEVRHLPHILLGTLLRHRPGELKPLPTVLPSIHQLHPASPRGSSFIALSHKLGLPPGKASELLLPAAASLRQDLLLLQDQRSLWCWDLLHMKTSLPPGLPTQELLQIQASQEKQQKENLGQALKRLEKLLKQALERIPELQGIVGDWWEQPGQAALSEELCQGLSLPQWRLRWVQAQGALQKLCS
UniProt O15488: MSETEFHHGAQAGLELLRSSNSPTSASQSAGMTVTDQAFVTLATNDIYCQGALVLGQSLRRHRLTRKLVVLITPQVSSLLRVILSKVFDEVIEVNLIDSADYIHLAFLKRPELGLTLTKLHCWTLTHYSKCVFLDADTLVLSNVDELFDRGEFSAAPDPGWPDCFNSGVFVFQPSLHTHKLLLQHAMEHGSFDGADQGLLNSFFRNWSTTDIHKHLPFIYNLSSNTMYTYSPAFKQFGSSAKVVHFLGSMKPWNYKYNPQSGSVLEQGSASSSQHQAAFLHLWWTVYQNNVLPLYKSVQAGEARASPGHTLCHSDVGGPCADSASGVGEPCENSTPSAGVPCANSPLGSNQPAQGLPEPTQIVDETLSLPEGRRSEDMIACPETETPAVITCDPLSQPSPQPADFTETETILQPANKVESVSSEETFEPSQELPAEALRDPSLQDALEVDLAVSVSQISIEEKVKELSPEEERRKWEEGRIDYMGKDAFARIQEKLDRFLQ
UniProt Q8WUI4: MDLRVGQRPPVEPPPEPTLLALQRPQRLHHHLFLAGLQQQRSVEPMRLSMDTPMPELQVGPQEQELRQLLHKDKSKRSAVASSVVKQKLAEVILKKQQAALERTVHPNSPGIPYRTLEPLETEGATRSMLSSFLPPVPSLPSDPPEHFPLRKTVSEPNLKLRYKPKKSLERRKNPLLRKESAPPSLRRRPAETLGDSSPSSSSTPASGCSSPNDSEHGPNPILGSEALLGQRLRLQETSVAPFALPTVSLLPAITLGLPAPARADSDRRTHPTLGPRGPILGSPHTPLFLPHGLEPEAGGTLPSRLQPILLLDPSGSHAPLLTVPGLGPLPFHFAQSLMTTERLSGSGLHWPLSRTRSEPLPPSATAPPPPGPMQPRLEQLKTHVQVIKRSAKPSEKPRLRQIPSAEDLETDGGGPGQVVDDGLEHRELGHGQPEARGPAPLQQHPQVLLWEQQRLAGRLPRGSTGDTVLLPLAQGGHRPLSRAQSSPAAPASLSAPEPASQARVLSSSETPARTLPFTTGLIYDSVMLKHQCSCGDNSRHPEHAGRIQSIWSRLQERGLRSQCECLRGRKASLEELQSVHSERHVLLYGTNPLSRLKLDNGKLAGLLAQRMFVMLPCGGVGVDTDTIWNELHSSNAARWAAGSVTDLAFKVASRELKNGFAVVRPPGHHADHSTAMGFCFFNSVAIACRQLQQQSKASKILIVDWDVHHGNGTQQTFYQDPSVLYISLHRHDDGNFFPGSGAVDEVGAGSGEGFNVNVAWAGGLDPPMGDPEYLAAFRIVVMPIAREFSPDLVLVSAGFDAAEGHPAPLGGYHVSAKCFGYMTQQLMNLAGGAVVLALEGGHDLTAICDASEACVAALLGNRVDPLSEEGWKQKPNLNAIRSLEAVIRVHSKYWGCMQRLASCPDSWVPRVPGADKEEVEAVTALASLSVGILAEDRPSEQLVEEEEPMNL
UniProt P42357: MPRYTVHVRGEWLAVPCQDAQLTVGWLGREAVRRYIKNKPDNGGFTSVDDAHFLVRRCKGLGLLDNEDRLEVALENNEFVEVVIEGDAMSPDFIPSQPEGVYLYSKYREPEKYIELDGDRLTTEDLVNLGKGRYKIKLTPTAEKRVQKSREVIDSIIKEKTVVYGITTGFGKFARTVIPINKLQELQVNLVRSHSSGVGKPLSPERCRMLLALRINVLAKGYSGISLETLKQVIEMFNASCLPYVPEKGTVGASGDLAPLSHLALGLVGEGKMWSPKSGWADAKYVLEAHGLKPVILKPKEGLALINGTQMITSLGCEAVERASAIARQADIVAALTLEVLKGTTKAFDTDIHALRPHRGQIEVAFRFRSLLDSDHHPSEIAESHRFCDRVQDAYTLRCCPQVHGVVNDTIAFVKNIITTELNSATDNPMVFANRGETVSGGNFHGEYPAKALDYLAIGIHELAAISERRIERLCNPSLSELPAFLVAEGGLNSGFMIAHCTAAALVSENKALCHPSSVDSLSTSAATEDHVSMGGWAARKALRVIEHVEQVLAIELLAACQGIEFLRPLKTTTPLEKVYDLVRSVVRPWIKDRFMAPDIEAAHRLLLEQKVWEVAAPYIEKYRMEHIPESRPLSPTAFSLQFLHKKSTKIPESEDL
UniProt O60443: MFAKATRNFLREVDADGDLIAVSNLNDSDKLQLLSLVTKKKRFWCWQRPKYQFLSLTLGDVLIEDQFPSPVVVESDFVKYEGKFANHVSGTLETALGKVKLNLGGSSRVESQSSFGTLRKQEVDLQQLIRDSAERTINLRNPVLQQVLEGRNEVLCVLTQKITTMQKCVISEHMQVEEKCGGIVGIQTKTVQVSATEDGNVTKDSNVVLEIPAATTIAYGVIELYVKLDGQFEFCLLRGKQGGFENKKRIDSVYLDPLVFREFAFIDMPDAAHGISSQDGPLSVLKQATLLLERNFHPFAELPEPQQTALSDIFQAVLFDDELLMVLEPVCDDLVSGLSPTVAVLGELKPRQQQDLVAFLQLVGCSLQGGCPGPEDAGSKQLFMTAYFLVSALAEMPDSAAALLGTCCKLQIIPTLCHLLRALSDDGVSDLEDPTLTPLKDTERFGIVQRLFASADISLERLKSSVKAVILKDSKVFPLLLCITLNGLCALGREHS
UniProt Q6P1K8: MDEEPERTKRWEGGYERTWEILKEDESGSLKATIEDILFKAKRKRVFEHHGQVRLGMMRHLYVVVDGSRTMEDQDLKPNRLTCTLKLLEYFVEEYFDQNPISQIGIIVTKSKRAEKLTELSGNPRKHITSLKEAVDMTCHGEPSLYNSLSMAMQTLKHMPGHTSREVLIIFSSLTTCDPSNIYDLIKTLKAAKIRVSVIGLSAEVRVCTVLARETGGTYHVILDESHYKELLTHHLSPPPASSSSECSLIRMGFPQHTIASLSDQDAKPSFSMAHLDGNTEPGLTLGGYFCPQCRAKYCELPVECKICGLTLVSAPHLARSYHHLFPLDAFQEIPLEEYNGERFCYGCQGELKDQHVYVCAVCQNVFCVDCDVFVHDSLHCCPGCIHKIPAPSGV

Legend:
Assay in all cases: log2 fold change, soluble protein after heating vs DMSO (PISA); higher = thermal stabilisation; K562 lysate, 10 uM; active = over 0.2 and 3.5 SD of the protein, either way, in both replicates (recomputed)
dasatinib = compound: Cc1nc(Nc2ncc(C(=O)Nc3c(C)cccc3Cl)s2)cc(N2CCN(CCO)CC2)n1 [dasatinib]
Method in brief: (§1)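 To prepare the extract, K562 pellets were dounce-homogenised in PBS pH 7.4 with 1 mM MgCl2, giving crude material at 1 mg/mL protein. This was treated with 10 μM compound for 30 min, then heated in aliquots for 3 min over 48°C-58°C before pooling and addition of NP-40 to 0.5% at 4°C. Centrifugation at 21,000xg for 90 min left soluble protein in the supernatant, which TMTpro 16plex LC-MS/MS quantified with equalised channel sums. Results are log-two fold changes in thermal stability compared with solvent controls, from duplicates.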

[1] = compound: Cn1cc(-c2ccc3c(c2)CCN3C(=O)Cc2cccc(C(F)(F)F)c2)c2c(N)ncnc21
Method in brief: as §1

quisinostat = compound: Cn1cc(CNCC2CCN(c3ncc(C(=O)NO)cn3)CC2)c2ccccc21 [quisinostat]
Method in brief: as §1

[2] = compound: NC(=O)Nc1cc(-c2cccc(F)c2)sc1C(=O)N[C@H]1CCCNC1
Method in brief: as §1

[3] = compound: NC(=O)c1cnc(N[C@@H]2CCCC[C@@H]2N)nc1Nc1cccc(-n2nccn2)c1
Method in brief: as §1

[4] = compound: NC1(c2ccc(-c3nc4ccn5c(=O)[nH]nc5c4cc3-c3ccccc3)cc2)CCC1
Method in brief: as §1

nilotinib = compound: Cc1cn(-c2cc(NC(=O)c3ccc(C)c(Nc4nccc(-c5cccnc5)n4)c3)cc(C(F)(F)F)c2)cn1 [nilotinib]
Method in brief: as §1

[5] = compound: Cc1nc(Nc2n[nH]c3c2CN(C(=O)N[C@H](CN(C)C)c2ccccc2)C3(C)C)c2sccc2n1
Method in brief: as §1

[6] = compound: Cc1ncc(-c2ccnc(Nc3ccc(S(C)(=O)=O)cc3)n2)n1C(C)C
Method in brief: as §1

tipifarnib = compound: Cn1cncc1[C@@](N)(c1ccc(Cl)cc1)c1ccc2c(c1)c(-c1cccc(Cl)c1)cc(=O)n2C [tipifarnib]
Method in brief: as §1

Measured: log2 fold change

GTPBP6 (UniProt O43824)
inactive: dasatinib -0.025 | [1] 0.136

HAGH isoform 2 (UniProt Q16775)
inactive: dasatinib 0.228 | [1] -0.024 | quisinostat 0.179 | [2] -0.066 | [3] 0.027 | [4] 0.006

GRN (UniProt P28799)
inactive: dasatinib 0.078 | [1] -0.003 | quisinostat -0.059 | [2] 0.002 | [3] 0.01 | [4] -0.027

H3-3A (UniProt P84243)
inactive: quisinostat 0.014 | [2] 0.032 | [3] 0 | [4] -0.093

GSR isoform 5 (UniProt P00390)
inactive: dasatinib -0.055 | [1] -0.028 | quisinostat -0.29 | [2] 0.062 | [3] -0.018 | [4] -0.448

GSTO1 (UniProt Q5TA02)
inactive: nilotinib -0.222 | [5] 0.039 | [6] 0.027 | tipifarnib 0.17 | [3] -0.035

HACD2 (UniProt Q6Y1H2)
inactive: [3] -0.045 | [4] 0.067

H1-5 (UniProt P16401)
inactive: nilotinib 0 | [5] 0.012 | dasatinib -0.042 | [6] 0.013 | [1] -0.05 | quisinostat -0.001 | tipifarnib 0.02 | [2] -0.022 | [3] -0.015 | [4] -0.011

GULP1 (UniProt Q9UBP9)
inactive: nilotinib -0.033 | [5] -0.031 | dasatinib -0.124 | [6] 0.032 | [1] 0.004 | quisinostat -0.19 | tipifarnib -0.088 | [2] 0.135 | [4] 0.107

GSTM2 (UniProt P28161)
inactive: nilotinib 0.124 | [5] -0.007 | dasatinib 0.027 | [6] 0.007 | [1] -0.005 | tipifarnib 0.064 | [3] -0.052 | [4] -0.019

HCFC1 (UniProt P51610)
inactive: nilotinib 0.081 | [5] -0.256 | [6] -0.026 | quisinostat -0.012 | tipifarnib -0.067 | [2] 0.038 | [3] 0 | [4] 0.101

GRAMD1A (UniProt Q96CP6)
inactive: quisinostat 0.085 | [2] 0.02 | [4] -0.038

GYPA (UniProt P02724)
inactive: dasatinib 0.097 | [1] 0.045 | quisinostat -0.062 | [2] 0.026 | [3] -0.047 | [4] -0.024

GUCD1 isoform 3 (UniProt Q96NT3)
inactive: dasatinib -0.108 | [1] 0.133 | quisinostat -0.028 | [2] -0.132 | [3] -0.136 | [4] -0.026

HAUS5 (UniProt O94927)
inactive: nilotinib -0.014 | [5] 0.01 | dasatinib -0.071 | [6] -0.011 | [1] -0.015 | quisinostat -0.11 | tipifarnib 0.006 | [2] 0.079 | [3] 0.004 | [4] -0.02

HDGFL3 (UniProt Q9Y3E1)
inactive: nilotinib 0.021 | [5] -0.016 | dasatinib 0.022 | [6] 0.046 | [1] 0.002 | quisinostat -0.039 | tipifarnib 0.025 | [2] 0.04 | [3] -0.015 | [4] -0.006

GYG2 (UniProt O15488)
inactive: dasatinib -0.023 | [1] 0.018 | [3] -0.074 | [4] 0.013

HDAC7 isoform 5 (UniProt Q8WUI4)
inactive: nilotinib 0.004 | [5] -0.004 | dasatinib -0.018 | [6] -0.005 | [1] -0.041 | tipifarnib -0.051 | [2] -0.009 | [3] 0.013 | [4] 0.002

Quoted from the listing (two entries):
GYG2 (UniProt O15488)
inactive: dasatinib -0.023 | [1] 0.018 | [3] -0.074 | [4] 0.013

HDAC7 isoform 5 (UniProt Q8WUI4)
inactive: nilotinib 0.004 | [5] -0.004 | dasatinib -0.018 | [6] -0.005 | [1] -0.041 | tipifarnib -0.051 | [2] -0.009 | [3] 0.013 | [4] 0.002

The list goes on:

HAL (UniProt P42357)
inactive: dasatinib 0.247 | [1] -0.171 | quisinostat 0.107 | [2] -0.243 | [3] 0.118 | [4] 0.195

GSDME (UniProt O60443)
inactive: dasatinib -0.014 | [1] -0.111 | quisinostat -0.179 | [2] 0.153 | [3] 0.033 | [4] -0.057

HACD3 (UniProt Q9P035)
inactive: nilotinib 0.023 | [5] -0.09 | dasatinib -0.041 | [6] -0.007 | [1] 0.017 | quisinostat -0.048 | tipifarnib -0.04 | [2] 0.013 | [3] 0.01 | [4] -0.023

GPT2 (UniProt Q8TD30)
inactive: dasatinib 0.036 | [1] 0.034 | quisinostat 0.039 | [2] -0.031 | [4] -0.091

HARS (UniProt P12081)
inactive: nilotinib 0.031 | [5] 0.003 | dasatinib -0.006 | [6] -0.015 | [1] 0.008 | quisinostat -0.021 | tipifarnib 0.019 | [2] -0.019 | [3] 0.005 | [4] 0.021

GTF2H2C (UniProt Q6P1K8)
inactive: dasatinib -0.099 | [1] 0.068 | quisinostat -0.098 | [2] 0.076

GSPT1 isoform 2 (UniProt P15170)
inactive: [3] -0.027

HDAC8 (UniProt Q9BY41)
inactive: nilotinib -0.043 | [5] 0.017 | dasatinib -0.039 | [6] -0.01 | [1] -0.014 | tipifarnib 0.1 | [2] 0.018 | [3] -0.005 | [4] -0.044
